Measurements as given in PubChem BioAssay AID720523 (National Center for Advancing Translational Sciences (NCATS), 2013).
In all, about 1,400 compounds went through this assay and about 25 (2%) were called active. Only results without a clear call are listed here; the source files them as inconclusive. Calls follow the shape of the dose curve; as a rule, active = well fitted inhibition curve with a large enough effect; inconclusive = small, poorly fitted or top-dose-only effect; inactive = flat fitted curve, though single readings scatter.

Test: Nrf2 qHTS screen for inhibitors: A549 ARE-Fluc Cytotoxicity Counterscreen for Hit Validation
Conditions: A549 ARE-Fluc cells
Text: Nrf2 is a transcription factor that maintains cellular redox homoestasis and protects cells from xenobiotics. Nrf2 binds to the antioxidant response element (ARE) to induce gene expression of a broad spectrum of genes that encode for antioxidants. […] Finding a small molecule that act as an inhibitor of Nrf2 function would represent a novel therapeutic target that could lead to improvement in survival of patients undergoing chemo- and/or radio- therapy.
In collaboration with the Biswal laboratory, a cell based, luminescence assay (BugLite) was developed to detect the Nrf2 activity using the A549 ARE_Fluc cells (AID 504648). This assay was coupled with a fluorescence based (CellTiter Fluor) cytotoxicity assay to identify and exclude toxic compounds. […] The data herein is the result of the CellTiter Fluor assay where decrease in fluorescence signal = cytotoxicity. […]
Five uL of cell suspension was dispensed into 1536-well white TC-treated plate using the Kalypsys dispenser to achieve a density of 5000 cells/well in all columns except column 1. […] The fluorescence signal was read using the PerkinElmer ViewLux plate reader (Ex = 405 nm /Em = 525 nm) for a 3 second exposure. […] A second ViewLux read (40 sec exposure) was performed to detect the luminescence signal. Cytotoxicity was assessed through the first fluorescent read while biochemical activity against Nrf2 was measured in the luminescent read. […]

SMILES | Potency
CC1CCOC(=O)C=CC=CC(=O)OC2CC3OC4C5OC5(C)C(O)CC4(COC(=O)C1O)C2(C)C31CO1 (configuration not stated) | inconclusive: 2060 nM
CC(=O)OC1C(=O)OCC23CCC4(C)OC4C2OC2CC(OC(=O)C=CC=CC(=O)OCCC1C)C3(C)C21CO1 (configuration not stated) | inconclusive: 51.7 nM
